The record followed here is PMC8788068.

Amino acid sequences for entries named in this document (tags omitted).
UniProt P15924: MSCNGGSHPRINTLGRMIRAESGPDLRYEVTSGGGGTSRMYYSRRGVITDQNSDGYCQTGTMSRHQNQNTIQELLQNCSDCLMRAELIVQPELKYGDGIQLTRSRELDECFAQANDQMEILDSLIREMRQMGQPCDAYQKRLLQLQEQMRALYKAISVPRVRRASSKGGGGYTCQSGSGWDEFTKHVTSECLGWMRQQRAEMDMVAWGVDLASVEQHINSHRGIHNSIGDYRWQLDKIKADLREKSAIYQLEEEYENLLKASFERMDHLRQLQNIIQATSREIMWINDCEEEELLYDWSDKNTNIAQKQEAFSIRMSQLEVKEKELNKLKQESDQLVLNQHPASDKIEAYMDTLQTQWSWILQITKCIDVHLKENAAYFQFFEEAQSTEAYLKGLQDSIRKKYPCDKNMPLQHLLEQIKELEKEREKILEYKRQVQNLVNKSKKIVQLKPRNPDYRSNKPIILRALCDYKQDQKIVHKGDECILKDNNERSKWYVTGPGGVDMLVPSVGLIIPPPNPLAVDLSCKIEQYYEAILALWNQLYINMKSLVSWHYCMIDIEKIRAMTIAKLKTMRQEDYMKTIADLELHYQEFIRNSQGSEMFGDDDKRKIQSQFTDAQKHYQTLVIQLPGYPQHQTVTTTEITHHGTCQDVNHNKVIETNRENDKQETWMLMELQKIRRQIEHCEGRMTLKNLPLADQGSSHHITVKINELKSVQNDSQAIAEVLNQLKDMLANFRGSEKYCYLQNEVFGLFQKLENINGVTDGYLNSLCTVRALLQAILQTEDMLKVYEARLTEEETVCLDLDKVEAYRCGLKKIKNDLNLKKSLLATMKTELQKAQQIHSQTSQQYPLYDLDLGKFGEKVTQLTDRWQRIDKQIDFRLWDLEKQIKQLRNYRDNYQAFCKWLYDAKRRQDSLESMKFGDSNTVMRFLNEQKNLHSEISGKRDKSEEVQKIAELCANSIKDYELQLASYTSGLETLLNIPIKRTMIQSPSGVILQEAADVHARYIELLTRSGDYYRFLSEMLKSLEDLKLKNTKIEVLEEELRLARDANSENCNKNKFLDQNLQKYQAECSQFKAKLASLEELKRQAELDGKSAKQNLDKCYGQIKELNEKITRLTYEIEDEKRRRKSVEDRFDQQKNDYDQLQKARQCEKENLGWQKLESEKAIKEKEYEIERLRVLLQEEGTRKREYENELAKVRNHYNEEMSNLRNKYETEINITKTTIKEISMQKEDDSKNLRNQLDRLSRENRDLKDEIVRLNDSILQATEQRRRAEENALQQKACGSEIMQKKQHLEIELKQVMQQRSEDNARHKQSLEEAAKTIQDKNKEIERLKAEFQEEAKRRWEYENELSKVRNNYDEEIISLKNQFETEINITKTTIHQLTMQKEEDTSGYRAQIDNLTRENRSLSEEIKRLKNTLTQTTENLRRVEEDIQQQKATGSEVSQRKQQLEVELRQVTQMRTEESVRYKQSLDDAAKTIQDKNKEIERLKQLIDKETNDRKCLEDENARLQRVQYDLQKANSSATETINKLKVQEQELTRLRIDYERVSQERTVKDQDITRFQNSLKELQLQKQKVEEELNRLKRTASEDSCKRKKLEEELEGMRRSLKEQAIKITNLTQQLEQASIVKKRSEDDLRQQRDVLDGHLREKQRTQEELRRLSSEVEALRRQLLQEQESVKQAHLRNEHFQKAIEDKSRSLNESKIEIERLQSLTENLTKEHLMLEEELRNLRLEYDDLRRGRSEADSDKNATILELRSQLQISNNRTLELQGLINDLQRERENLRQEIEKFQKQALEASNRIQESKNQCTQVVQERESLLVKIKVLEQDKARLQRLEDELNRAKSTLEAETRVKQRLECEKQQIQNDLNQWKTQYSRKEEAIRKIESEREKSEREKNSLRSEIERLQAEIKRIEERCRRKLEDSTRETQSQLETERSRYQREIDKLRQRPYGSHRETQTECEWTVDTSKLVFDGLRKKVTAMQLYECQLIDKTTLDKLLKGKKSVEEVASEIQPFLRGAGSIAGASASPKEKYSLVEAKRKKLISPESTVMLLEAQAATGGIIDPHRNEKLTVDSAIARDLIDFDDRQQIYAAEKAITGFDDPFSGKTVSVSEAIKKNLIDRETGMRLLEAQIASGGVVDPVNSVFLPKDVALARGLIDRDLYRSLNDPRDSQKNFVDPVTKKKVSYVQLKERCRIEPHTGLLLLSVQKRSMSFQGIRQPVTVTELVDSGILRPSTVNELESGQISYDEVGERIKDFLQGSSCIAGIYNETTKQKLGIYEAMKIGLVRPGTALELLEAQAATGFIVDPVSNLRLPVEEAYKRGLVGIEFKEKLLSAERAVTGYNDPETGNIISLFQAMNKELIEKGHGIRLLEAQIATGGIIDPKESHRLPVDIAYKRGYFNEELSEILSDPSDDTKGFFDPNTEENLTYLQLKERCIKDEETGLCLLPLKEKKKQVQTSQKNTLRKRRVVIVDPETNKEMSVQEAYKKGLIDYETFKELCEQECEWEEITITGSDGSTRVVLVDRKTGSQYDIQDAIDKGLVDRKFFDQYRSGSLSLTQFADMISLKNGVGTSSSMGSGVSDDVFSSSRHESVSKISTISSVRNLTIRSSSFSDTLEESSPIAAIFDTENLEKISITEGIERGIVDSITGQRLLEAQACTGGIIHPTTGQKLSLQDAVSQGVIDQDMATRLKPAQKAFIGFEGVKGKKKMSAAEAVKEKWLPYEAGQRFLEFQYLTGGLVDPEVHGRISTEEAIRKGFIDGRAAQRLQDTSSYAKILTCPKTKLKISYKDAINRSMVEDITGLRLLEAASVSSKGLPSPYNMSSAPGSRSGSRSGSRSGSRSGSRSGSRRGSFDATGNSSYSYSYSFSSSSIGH

No constants are given. Whether binding was seen depends on the method and setting. In cells and extracts the contact can be indirect. A yes stands for co-enrichment or nearness to the bait. Other partners may have been found.

This experiment concerns the target T1, Keratin 13 (KRT13), overexpressed in MCF7 cells (MCF7-KRT13) (human) (UniProt P13646).
T1 sequence: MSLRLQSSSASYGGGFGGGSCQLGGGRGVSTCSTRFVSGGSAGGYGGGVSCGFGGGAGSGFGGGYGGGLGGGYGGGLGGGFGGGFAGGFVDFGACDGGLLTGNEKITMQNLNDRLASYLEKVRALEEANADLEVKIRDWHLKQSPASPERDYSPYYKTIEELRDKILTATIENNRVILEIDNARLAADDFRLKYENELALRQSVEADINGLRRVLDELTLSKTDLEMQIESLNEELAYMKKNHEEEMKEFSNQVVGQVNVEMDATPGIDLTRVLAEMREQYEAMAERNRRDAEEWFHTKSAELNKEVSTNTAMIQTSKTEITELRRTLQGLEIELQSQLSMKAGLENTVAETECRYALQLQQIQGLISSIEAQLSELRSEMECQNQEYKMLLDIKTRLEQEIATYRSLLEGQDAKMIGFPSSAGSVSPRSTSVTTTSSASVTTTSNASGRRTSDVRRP
Nature of the experiment: affinity purification with mass spectrometry; anti-KRT13 antibody immunoprecipitation from MCF7-KRT13 cell lysate (compared with MCF7-con), Protein A/G PLUS-Agarose, 4 °C overnight, LC-MS/MS with spectral counting.

For “desmoplakin (DSP) (from UniProt P15924 1-2871)”, the binding result is “binds”.

B1: plakoglobin (PG, γ-catenin) (protein, UniProt P14923 1-745)
chain: MEVMNLMEQPIKVTEWQQTYTYDSGIHSGANTCVPSVSSKGIMEEDEACGRQYTLKKTTTYTQGVPPSQGDLEYQMSTTARAKRVREAMCPGVSGEDSSLLLATQVEGQATNLQRLAEPSQLLKSAIVHLINYQDDAELATRALPELTKLLNDEDPVVVTKAAMIVNQLSKKEASRRALMGSPQLVAAVVRTMQNTSDLDTARCTTSILHNLSHHREGLLAIFKSGGIPALVRMLSSPVESVLFYAITTLHNLLLYQEGAKMAVRLADGLQKMVPLLNKNNPKFLAITTDCLQLLAYGNQESKLIILANGGPQALVQIMRNYSYEKLLWTTSRVLKVLSVCPSNKPAIVEAGGMQALGKHLTSNSPRLVQNCLWTLRNLSDVATKQEGLESVLKILVNQLSVDDVNVLTCATGTLSNLTCNNSKNKTLVTQNSGVEALIHAILRAGDKDDITEPAVCALRHLTSRHPEAEMAQNSVRLNYGIPAIVKLLNQPNQWPLVKATIGLIRNLALCPANHAPLQEAAVIPRLVQLLVKAHQDAQRHVAAGTQQPYTDGVRMEEIVEGCTGALHILARDPMNRMEIFRLNTIPLFVQLLYSSVENIQRVAAGVLCELAQDKEAADAIDAEGASAPLMELLHSRNEGTATYAAAVLFRISEDKNPDYRKRVSVELTNSLFKHDPAAWEAAQSMIPINEPYGDDMDATYRPMYSSDVPLDPLEMHMDMDGDYPIDTYSDGLRPPYPTADHMLA
With B1, the binding result was “binds”.
